# Publication PMC11234452, “HydrogelFinder: A Foundation Model for Efficient Self‐Assembling Peptide Discovery Guided by Non‐Peptidal Small Molecules” (Advanced Science, 2024)
# Assays:
# [1] = system: stem cells from human exfoliated deciduous teeth (SHED); settings: MTT, 0.1–500 µM peptide, 24 h (legend; method says 48 h), n = 3
# SHED cells = SHED cells grown on the surface of hydrogel (1.0 wt%) for 24 h; calcein AM / PI staining
# [2] = system: human dermal fibroblasts (NHDF); settings: NHDF cells, MTT, 0.1–500 µM peptide, 24 h (legend; method says 48 h), n = 3
# [3] = TEM of hydrogel matrix, nanofiber width; type: physicochemical; settings: uranyl formate stain, ImageJ, 30 measurements per picture
# Method: These nanofibers were entangled with one another, forming a 3D‐network that comprised the hydrogel matrix (Figure 4B).
# The sample was prepared by placing a drop of peptide solution on a 200‐mesh copper grid (Electron Microscopy China) and allowed to stand for 1.0 min, then blotted with filter paper. Subsequently a drop of 1.0% Uranyl Formate was placed on the grid and allowed to stand for 1–2 min, then blotted with a piece of filter paper and left to air dry. Images were taken with a JEOL JEM‐2100Plus at 80 kV accelerating voltage. By calculating the width of peptide, The image J was used to measure 30 times for 1 TEM picture, and to gather statistics with frequency.^[ [26] ^]
# [4] = Oscillatory rheology, dynamic time sweep; type: physicochemical; settings: 37 °C, 15 mm parallel geometry, gap 0.5 mm, G′ consistently higher than G″
# Method: To further explore the gelation properties and self‐assembly behavior of the candidate self‐assembling molecules, we carried out a series of biophysical characterization experiments.
# All rheological experiments were performed on an Anton Parr equipped with a steel 15 mm parallel geometry tool. […] To avoid dehydration, a layer of silicon oil was applied around the edge of the sample at the start of the measurement. Dynamic strain sweep experiments were performed to ensure that the time‐sweep data was collected in the linear regime of strain. The dynamic strain sweep was performed varying the strain from 0.1 to 100% at a constant frequency (6 rad s^−1).
# [5] = Hydrogelation test, inverted tube method; type: physicochemical; settings: buffer 1X PBS, 37 °C overnight
# Method: We subsequently evaluated their gelation capability (Figure S2, Supporting Information). After purification by HPLC, the obtained compounds were dissolved in water and the pH of the solution was adjusted to trigger self‐assembly and hydrogelation.
# Observing gel behavior in an inverted test tube is a rapid and facile approach to determine whether a dissolved peptide formed a gel.
# All compounds were placed in a glass tube (diameter 10 mm) and first dissolved in D.I water, sonicated for 5 min and putted on ice for 30 min. Then added 2x PBS buffer (5.4 mM KCl, 20 mM Na2HPO4, 4 mM KH2PO4) or D.I water to reach the final concentration of 1.0 wt%. pH was adjusted with NaOH or HCl. The solutions were stored in 37 °C incubator overnight. Gelation was confirmed by the inverting method.
Compound,IC50 [1] [µM],biocompatibility in live/dead assay (SHED cells),IC50 [2] [µM],nanofiber width [3],storage modulus (G′) at equilibrium [4],pH (of hydrogelation) [5],Conc. (hydrogelation concentration) ([5]; pH adjusted with NaOH or HCl) [wt%]
NC(=O)[C@H](Cc1ccccc1)NC(=O)[C@H](CC(=O)O)NC(=O)CNC(=O)[C@H](CCC(=O)O)NC(=O)[C@H](Cc1ccccc1)NC(=O)[C@H](CCC(=O)O)NC(=O)[C@@H](N)Cc1c[nH]c2ccccc12 [compound 16],> 500,high biocompatibility,> 500,,,,
CC(C)C[C@H](NC(=O)[C@H](CC(C)C)NC(=O)[C@H](CCCCN)NC(=O)[C@H](CC(C)C)NC(=O)[C@H](CCCNC(=N)N)NC(=O)[C@H](CC(C)C)NC(=O)[C@H](CCCNC(=N)N)NC(=O)[C@@H](N)C(C)C)C(=O)O [compound 62],> 500,high biocompatibility,> 500,approximately 14 nm,"2,143 Pa",8.0,1.0
